For this test, the target named is T1, HIV-1 CA CTD/CAI interaction (Human immunodeficiency virus type 1 group M subtype B, UniProt P12493).
T1 construct: DNA encoding the CA CTD was cloned into BamHI-NotI sites of prokaryotic expression vector pGEX-4 T-1; made in house; host or cells: E. coli BL21(DE3)
Put plainly: biochemical. To be noted: read-out: IR (%), inhibitory rate. Type of test: binding. Here is the method: The Discovery Probe FDA-approved Drug Library comprised 1,971 compounds, which were available as stock solutions at 10 mM concentrations in DMSO. Primary screening of these compounds was conducted using a previously established HTRF assay ([Zhang et al., 2019]). Briefly, compound (1 μL), CAI-biotin peptide (2 μL) and GST-CA CTD (2 μL) were dispensed into 384-well microplates. After 30 min incubation at room temperature, 5 μL premixed HTRF agents were added. After an additional 1 h incubation at room temperature, the HTRF signal was acquired by reading the plates in a PerkinElmer Envision Multilabel Plate Reader. Data were analyzed and visualized using GraphPad Prism (version 5.0). […] The quality of the assay was determined by calculating the Z’-factor using the following equation: Z’ = 1 - (3 × SDmax + 3 × SDmin) / |μmax - μmin|, where SDmax and SDmin represent the standard deviations of the positive and negative control measurements, respectively, and μmax and μmin represent the means of the respective positive and negative signal controls ([Zhang et al., 1999]).
We screened a library of 1,971 small molecules, all of which were FDA-approved. Each compound was tested in duplicate at a concentration of 50 μM. […] The remaining compounds were further validated through dose–response analysis using the HTRF assay. […]

Consider `CCCCCCCCCCCCCCCC[n+]1ccccc1` [Cetylpyridinium], for which the inhibition at 50 µM was found to be 97.5%.
